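Malaria parasite (P. falciparum) lines kept in red blood cells; parasite DNA is measured by SYBR Green fluorescence after lysis, 72 h after compound addition.
Each compound was titrated across a series from about 0.000037 to 29 µM.
The number is the fitted AC50, the concentration giving a half-maximal change in signal; a lower value means higher potency, whether the curve shows a decrease or an increase.
Calls follow the curve class and fit quality: every row here is inconclusive, covering signal-raising curves and weak, poorly fitted, partial or highest-dose-only inhibition curves.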

Values are in nM.
All entries here are filed as inconclusive.
Only part of the assay is shown, chiefly results filed as inconclusive.
Potencies fitted to partial, single-point or poorly fitting curves are rough.
Some entries filed as inconclusive have a full curve.
The first word of each remark tells which way the curve ran; it can be opposite to the aim of the assay.

* Cc1sc2ccccc2c1CC1=NCCN1 [W2] | potency 15101 nM (inhibitor, single point)
* Cc1onc(-c2c(F)cccc2Cl)c1C(=O)NC1C(=O)N2C1SC(C)(C)C2C(=O)O (stereo not shown) [CP269] | potency 0.5 nM (activator)
* O=C1c2ccccc2CN2C(=O)c3ccccc3CN12 [ECU] | potency 3548 nM (inhibitor, single point)
* O=C1c2ccccc2CN2C(=O)c3ccccc3CN12 [DIV17] | potency 1694 nM (inhibitor, partial curve, poor fit)
* Cc1ncc([N+](=O)[O-])n1CC(C)O (stereo not shown) [CP297] | potency 0.5 nM (activator)
* Cc1ncc([N+](=O)[O-])n1CC(C)O (stereo not shown) [CP260] | potency 12589 nM (inhibitor, single point)
* C[C@@](Cc1ccc(O)c(O)c1)(NN)C(=O)O [CP237] | potency 3981 nM (inhibitor, partial curve)
* C[C@@](Cc1ccc(O)c(O)c1)(NN)C(=O)O [CP260] | potency 17782 nM (inhibitor, single point)
* C[C@@](Cc1ccc(O)c(O)c1)(NN)C(=O)O [AA1029] | potency 15848 nM (inhibitor, single point)
* C[C@@](Cc1ccc(O)c(O)c1)(NN)C(=O)O [ICS] | potency 17782 nM (inhibitor, single point)
* C[C@@](Cc1ccc(O)c(O)c1)(NN)C(=O)O [P94_40] | potency 14125 nM (inhibitor, single point)
* C[C@@](Cc1ccc(O)c(O)c1)(NN)C(=O)O [AS120] | potency 17782 nM (inhibitor, single point)
* C[C@@](Cc1ccc(O)c(O)c1)(NN)C(=O)O [7G8] | potency 10000 nM (inhibitor, single point)
* Cc1nc2n(c(=O)c1CCN1CCC(c3noc4cc(F)ccc34)CC1)CCCC2 [DIV14] | potency 3381 nM (inhibitor, partial curve, poor fit)
* Cc1nc2n(c(=O)c1CCN1CCC(c3noc4cc(F)ccc34)CC1)CCCC2 [CP286] | potency 8912 nM (inhibitor, single point)
* Cc1nc2n(c(=O)c1CCN1CCC(c3noc4cc(F)ccc34)CC1)CCCC2 [CP237] | potency 15848 nM (inhibitor, single point)
* Cc1nc2n(c(=O)c1CCN1CCC(c3noc4cc(F)ccc34)CC1)CCCC2 [W2] | potency 6012 nM (inhibitor, partial curve)
* Cc1nc2n(c(=O)c1CCN1CCC(c3noc4cc(F)ccc34)CC1)CCCC2 [CP260] | potency 7943 nM (inhibitor, partial curve)
* Cc1nc2n(c(=O)c1CCN1CCC(c3noc4cc(F)ccc34)CC1)CCCC2 [CP335] | potency 2133 nM (inhibitor, full curve)
* Cc1ccc(-c2ncc(Cl)cc2-c2ccc(S(C)(=O)=O)cc2)cn1 [W2] | potency 16944 nM (inhibitor, single point)
* C[C@@H]1CC2C3CCC4=CC(=O)C=C[C@]4(C)[C@@]3(F)[C@@H](O)C[C@]2(C)[C@@]1(O)C(=O)COC(=O)c1cccc(S(=O)(=O)O)c1 (stereo partly shown) [7G8] | potency 7943 nM (inhibitor, partial curve, poor fit)
* N[C@H](Cc1ccc(O)c(O)c1)C(=O)O [Dd2] | potency 11220 nM (inhibitor, single point)
* N[C@H](Cc1ccc(O)c(O)c1)C(=O)O [JCK] | potency 17782 nM (inhibitor, single point)
* N[C@H](Cc1ccc(O)c(O)c1)C(=O)O [PC15] | potency 15848 nM (inhibitor, single point)
* N[C@H](Cc1ccc(O)c(O)c1)C(=O)O [7G8] | potency 15848 nM (inhibitor, single point)

The last 3 entries again:

| Compound | condition | potency (nM) | curve as filed |
|---|---|---|---|
| `N[C@H](Cc1ccc(O)c(O)c1)C(=O)O` | JCK | 17782 | inhibitor, single point |
| `N[C@H](Cc1ccc(O)c(O)c1)C(=O)O` | PC15 | 15848 | inhibitor, single point |
| `N[C@H](Cc1ccc(O)c(O)c1)C(=O)O` | 7G8 | 15848 | inhibitor, single point |

From PubChem BioAssay record AID504749 (NCATS, 2011).